Reference: patent CN105646710A
No constants are given. Whether binding was seen depends on the method and setting. Some results given as binding are weak or reduced against the parent protein; the word gives no strength.

Sequences of proteins named here, by UniProt entry; tags and fusion partners are left off. Residues count along the entry.
UniProt P35968, residues 20-764: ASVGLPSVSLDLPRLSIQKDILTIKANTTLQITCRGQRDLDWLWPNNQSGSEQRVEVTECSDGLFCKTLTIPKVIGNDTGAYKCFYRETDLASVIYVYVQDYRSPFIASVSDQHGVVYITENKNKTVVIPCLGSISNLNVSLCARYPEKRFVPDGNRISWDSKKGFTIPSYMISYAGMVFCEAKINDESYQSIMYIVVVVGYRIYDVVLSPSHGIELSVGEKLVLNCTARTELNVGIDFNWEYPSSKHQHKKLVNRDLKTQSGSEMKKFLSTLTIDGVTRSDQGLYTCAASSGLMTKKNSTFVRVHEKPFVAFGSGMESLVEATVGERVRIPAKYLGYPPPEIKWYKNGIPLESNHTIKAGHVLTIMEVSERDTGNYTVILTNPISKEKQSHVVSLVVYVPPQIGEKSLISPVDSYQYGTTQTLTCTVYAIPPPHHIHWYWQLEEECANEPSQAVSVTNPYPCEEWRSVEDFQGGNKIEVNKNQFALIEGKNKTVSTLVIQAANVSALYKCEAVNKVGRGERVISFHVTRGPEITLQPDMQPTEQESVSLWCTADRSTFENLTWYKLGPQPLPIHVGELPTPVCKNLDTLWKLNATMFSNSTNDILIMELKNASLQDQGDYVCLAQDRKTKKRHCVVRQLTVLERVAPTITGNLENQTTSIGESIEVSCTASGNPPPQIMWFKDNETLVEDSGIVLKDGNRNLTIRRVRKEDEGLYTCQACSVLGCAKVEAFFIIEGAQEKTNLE

B1: 抗VEGFR-2抗体, 轻链可变区 SEQ ID NO 4, 重链可变区 SEQ ID NO 7 (scFv, V domains shown)
VH: EVQLVQSGGGLVKPGGSLRLSCAASGFTFSSYSMNWVRQAPGKGLEWVSSISSSSSYIYYADSVKGRFTISRDNAKNSLYLQMNSLRAEDTAVYYCARVTDAFDIWGQGTMVTVSS
VL: DIQLTQSPSSVSASVGDRVTLTCRASQSIKRWLAWYQQKPGKAPRLLIYAASTLQSGVPSRFSGGGSGTDETLTINSLQPEDFAIYYCQQANSFPPTFGPGTKVDIK
B2: 抗VEGFR-2抗体, 轻链可变区 SEQ ID NO 1, 重链可变区 SEQ ID NO 7 (scFv, V domains shown)
VH: B1 VH
VL: EIVMTQSPATLSLSPGERATLSCRASQSVSSYLAWYQQKPGQAPRLLIYDSSNRATGIPARFSGSGSGTDFTLTISSLEPEDFATYYCLQHNTFPSTFGQGTKVEIK
B3: 抗VEGFR-2抗体, 轻链可变区 SEQ ID NO 3, 重链可变区 SEQ ID NO 7 (scFv, V domains shown)
VH: B1 VH
VL: DIQMTQSPSSVSASIGDRVTITCRASQGIDNWLGWYQQKPGKAPKLLIYDASNLDTGVPSRFSGSGSGTYFTLTISSLQAEDFAVYFCQQAKAFPPTFGGGTKVDIK
B4: 抗VEGFR-2抗体, 轻链可变区 SEQ ID NO 5, 重链可变区 SEQ ID NO 7 (scFv, V domains shown)
VH: B1 VH
VL: DVVMTQSPSSLSASVGDRVTITCRASQNINNYLNWYQQKPGKAPKLLIYAASTLQSGVPSRFSGSGSGTDFTLTITSLQPEDSATYYCQQYSRYPPTFGGGTKVEI
B5: 抗VEGFR-2抗体, 轻链可变区 SEQ ID NO 6, 重链可变区 SEQ ID NO 7 (scFv, V domains shown)
VH: B1 VH
VL: DIQLTQSPSSVSASVGDSVTITCRASQDISSWLAWYQQKPGEAPKLLIYAASLLQSGVPSRFSGSGSGTDFALTINSLQPEDFATYFCQQADSFPPTFGQGTRLEIK
B6: 抗VEGFR-2抗体, 轻链可变区 SEQ ID NO 2, 重链可变区 SEQ ID NO 7 (scFv, V domains shown)
VH: B1 VH
VL: DIQLTQSPSSVSASVGDRVTITCRASQGISSRLAWYQQKPGKAPKLLIYAASSLQTGVPSRFSGSGSGTDFTLTISSLQPEDFATYYCQQANRFPPTFGPGTKVDIK

Target: VEGFR-2 (UniProt P35968)
Assay: phage panning on immobilised VEGFR-2 and mirrorball assay with biotinylated VEGFR-2

binding | Binder
binds | B1
binds | B2
binds | B3
binds | B4
binds | B5
binds | B6
